Laboratory results as given in PMC9221213.
Results are given in words; binding and its absence hold for the method and conditions named. Binding seen in cells or lysates may run through a third protein. Some entries that bind do so weakly or less than the wild type.

Target: T1, Caveolin-1 (dog) (UniProt P33724)
T1 sequence: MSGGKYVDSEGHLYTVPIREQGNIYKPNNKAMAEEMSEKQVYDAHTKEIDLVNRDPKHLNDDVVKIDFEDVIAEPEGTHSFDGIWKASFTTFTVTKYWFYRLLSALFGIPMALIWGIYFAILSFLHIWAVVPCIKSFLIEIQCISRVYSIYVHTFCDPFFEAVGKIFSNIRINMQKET
Experiment: co-IP; CAV1 immunoprecipitated with a polyclonal anti-CAV1 antibody (2.5 ug) from protein extracts (2 mg total protein) of B16F10(Mock) and B16F10(CAV1) cells; PTP1B detected by immunoblot

B1: non-receptor protein tyrosine phosphatase type 1B (enzyme, UniProt P35821 1-432)
chain: MEMEKEFEEIDKAGNWAAIYQDIRHEASDFPCKVAKLPKNKNRNRYRDVSPFDHSRIKLHQEDNDYINASLIKMEEAQRSYILTQGPLPNTCGHFWEMVWEQKSRGVVMLNRIMEKGSLKCAQYWPQQEEKEMVFDDTGLKLTLISEDVKSYYTVRQLELENLTTKETREILHFHYTTWPDFGVPESPASFLNFLFKVRESGSLSLEHGPIVVHCSAGIGRSGTFCLADTCLLLMDKRKDPSSVDIKKVLLEMRRFRMGLIQTADQLRFSYLAVIEGAKFIMGDSSVQDQWKELSREDLDLPPEHVPPPPRPPKRTLEPHNGKCKELFSSHQWVSEETCGDEDSLAREEGRAQSSAMHSVSSMSPDTEVRRRMVGGGLQSAQASVPTEEELSSTEEEHKAHWPSHWKPFLVNVCMATLLATGAYLCYRVCFH
binding: binds
